Experimental data as given in PubChem BioAssay AID2685 (National Center for Advancing Translational Sciences (NCATS), 2010).
The list shows a part of the results. These are further read-outs of the screen, such as a control signal, another cell line or another target. No call is given for them. Compounds called inactive in the main read-out are mostly missing here. The note in brackets gives the kind of curve behind each potency; many fits are weak.

Test: qHTS Assay for Lipid Storage Modulators in Drosophila S3 Cells;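 as to cell number change: cells counted by Cell Tracker Red CMTPX staining in the red channel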
Conditions: BODIPY lipid droplet fluorescence, 18-24 h; for cell number change: measured here: cell count max response, cells fed with added oleic acid
Method in brief: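 Drosophila S3 cells loaded with oleic acid (400 uM, as added) and compounds at several concentrations; lipid droplets imaged by 488-nm laser-scanning cytometry, 500–530 nm intensity and object ratio to cell channel. Percent activity normalized to 20 uM Triacsin C.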

[1] = measured here: lipid fluorescence (Fed channel) AC50, cells fed with added oleic acid
[2] = measured here: cell number channel AC50, cells fed with added oleic acid

In the case of `CC(Oc1ccc(S(=O)(=O)N2CCCC2)cc1[N+](=O)[O-])C(=O)NC(C)c1ccccc1` (configuration not stated), the cell number change was -14.5% and the AC50 [1] was 2.06 µM [falling, partial curve].
In the case of `Cc1cc(C(=O)CN2CCN(CC(=O)Nc3ccc(F)cc3)CC2)c(C)n1C1CC1`, the cell number change was 0.889% and the AC50 [1] was 6.51 µM [falling, single point].
With `Cc1sc2ncn(CC(=O)NCCCN3CCC(C)CC3)c(=O)c2c1S(=O)(=O)N1CCC(C)CC1` the cell number change was -8.55%.
For `O=C(O)CN1C(=O)/C(=C\c2ccc(OC(=O)c3ccco3)cc2)SC1=S`, the cell number change was 24.3% and the AC50 [1] was 6.51 µM [rising, single point].
In the case of `O=C(Nc1ccccc1C(=O)N1CCOCC1)c1ccc(Cl)cc1`, the cell number change was -3.17% and the AC50 [1] was 0.1 µM [falling, full curve, poor fit].
In the case of `O=C(OCc1nnc(-c2ccccc2)o1)c1cc([N+](=O)[O-])ccc1Cl`, the cell number change was 30.7%, the AC50 [2] was 4.11 µM [rising, single point] and the AC50 [1] was 29.1 µM [rising, single point].
For `COc1ccc(CCNC(=O)c2c(O)c3cccc4c3n(c2=O)CC4)cc1OC`, the cell number change was 14% and the AC50 [1] was 2.59 µM [rising, full curve, poor fit].
For `COc1ccc(/C=C/C(=O)C2CC2)cc1COc1cccc(C)c1C`, the cell number change was 19.7%, the AC50 [2] was 0.0461 µM [rising, partial curve, poor fit] and the AC50 [1] was 1.64 µM [rising, partial curve, poor fit].
In the case of `COC(=O)Nc1cc(C(=O)c2ccc(Cl)cc2Cl)c[nH]1`, the cell number change was 17.5% and the AC50 [1] was 32.6 µM [rising, single point].
For `CC(=O)c1ccc(OCc2cc(C(=O)N(C)C3CCOC3)no2)cc1` (configuration not stated), the cell number change was -4.86% and the AC50 [1] was 0.259 µM [rising, full curve].
In the case of `CC1CCCC(NC(=O)Nc2cccs2)C1C` (configuration not stated), the cell number change was 68.3%, the AC50 [2] was 11.6 µM [rising, partial curve] and the AC50 [1] was 6.51 µM [rising, single point].
In the case of `CCOC(=O)c1c(-c2ccc(C)cc2)csc1NC(=O)c1cccc(N2C(=O)CCC2=O)c1`, the cell number change was 6.51% and the AC50 [1] was 11.6 µM [falling, single point].
`COc1ccccc1N1C(=NC(=O)CCc2ccccc2)SC2CS(=O)(=O)CC21` (configuration not stated) showed a cell number change of 6.49%.
Work on `COc1ccc(OC)c(NC(=O)CCc2nnc3ccc(NCc4ccco4)nn23)c1` yielded a cell number change of -23.5%.
With `CCc1ccc(CN(C)C(=O)C2CCC(=O)N(CCCN3CCCC3=O)C2)cc1` (configuration not stated) the AC50 [1] was 0.58 µM [rising, single point].
`Nc1nnnn1/N=C/c1cc(Cl)cc(Cl)c1OCc1ccc(Cl)cc1Cl` showed a cell number change of 5.6%.
With `O=C1CN(C(=O)CSc2nc(-c3ccccc3)cs2)c2ccccc2N1` the cell number change was 25% and the AC50 [1] was 2.91 µM [rising, full curve, poor fit].
For `CCCCc1nnc(NC(=O)CSc2nc(C)cc(=O)[nH]2)s1`, the cell number change was 14.4%, the AC50 [2] was 1.16 µM [falling, full curve, poor fit] and the AC50 [1] was 0.13 µM [falling, full curve, poor fit].
For `COc1cc2c(=O)n(CCCN3CCOCC3)c(=S)[nH]c2c(OC)c1OC`, the cell number change was -12.6% and the AC50 [1] was 2.91 µM [rising, single point].
In the case of `COc1ccc(C(OC(=O)c2ccco2)C(=O)NC2CCCC2)cc1` (configuration not stated), the AC50 [1] was 25.9 µM [rising, single point].
With `Cc1cccc(C)c1NC(=O)C(C)c1ccc(-c2ccccc2)c(F)c1` (configuration not stated) the cell number change was -21.5% and the AC50 [1] was 1.64 µM [rising, partial curve].
For `CC(C)(C)OC(=O)Nc1ccc([C@H](NC(=O)OC(C)(C)C)C(=O)OC(C)(C)C)cc1`, the cell number change was 0.194% and the AC50 [2] was 1.03 µM [falling, single point].
In the case of `O=C(N/C=N/OCc1cccc(C(F)(F)F)c1)N1OC[C@@H]2COc3ccc4ccccc4c3[C@@H]21`, the cell number change was 22.3% and the AC50 [1] was 2.91 µM [falling, partial curve].
In the case of `O=C(NC1CC(=O)N(c2cccc(F)c2)C1)N1CCN(C(=O)c2ccco2)CC1` (configuration not stated), the cell number change was -9.01% and the AC50 [1] was 14.6 µM [rising, partial curve].
For `COC(=O)C1=C(C)N=c2s/c(=C/c3ccoc3)c(=O)n2C1c1ccccc1` (configuration not stated), the AC50 [2] was 0.259 µM [rising, full curve, poor fit] and the AC50 [1] was 3.66 µM [falling, partial curve].
For `Cc1ccc(O)c(NC(=O)C2CC(c3cccc(Br)c3)=NO2)c1` (configuration not stated), the cell number change was 18.2%, the AC50 [2] was 0.517 µM [rising, partial curve, poor fit] and the AC50 [1] was 16.4 µM [rising, single point].
In the case of `Cc1c(NC(=O)Cn2[nH]c(=O)c3ccccc3c2=O)c(=O)n(-c2ccccc2)n1C`, the cell number change was -4.59% and the AC50 [2] was 0.146 µM [falling, full curve].
`Cc1ccc2c(c1)C(c1ccc(N3CCOCC3)cc1)=NNC(c1cccs1)=N2` gave a cell number change of 15%.
In the case of `CN(Cc1ccc(Cl)cc1)C(=O)COC(=O)CSc1ccc([N+](=O)[O-])cc1`, the cell number change was -24.5% and the AC50 [1] was 1.84 µM [falling, single point].
`C=CCOc1ccccc1CNc1ccc2[nH]c(=O)[nH]c2c1` gave a cell number change of 6.04%.
With `O=[n+]1cc(-c2ccc(F)cc2)n([O-])c2c1CCC2` the cell number change was -199%, the AC50 [2] was 29.1 µM [falling, single point] and the AC50 [1] was 16.4 µM [falling, partial curve].
For `CCCOc1ccc(N2C(=O)CC(SC(=NC)Nc3ccc(F)cc3)C2=O)cc1` (configuration not stated), the cell number change was 7.46% and the AC50 [1] was 6.51 µM [rising, single point].
In the case of `CCc1nnc(NC(=O)CS(=O)(=O)Cc2ccccc2)s1`, the cell number change was 12.5% and the AC50 [1] was 4.11 µM [rising, full curve].
In the case of `NC(=O)CC1C(=O)N(c2ccc(F)cc2)C(=O)N1NC(=O)CCc1ccccc1` (configuration not stated), the cell number change was 19.4% and the AC50 [1] was 11.6 µM [falling, partial curve].
For `CCCCNC(=O)CSc1nc2cc3c(cc2c(=O)n1Cc1ccco1)OCO3`, the cell number change was 46.6%, the AC50 [2] was 6.51 µM [rising, full curve] and the AC50 [1] was 5.17 µM [rising, full curve].
With `Cc1ccc2[nH]c(-c3ccccc3)cc(=O)c2c1` the cell number change was -6.66% and the AC50 [1] was 18.4 µM [rising, single point].
For `O=C(O)c1ccccc1-c1ccccc1C(=O)NNc1ccc([N+](=O)[O-])cc1`, the cell number change was 12.8%.
For `COC(=O)C1=C(C)NC2=C(C(=O)CCC2)C1c1cn(Cc2ccc(Br)cc2)nc1-c1ccccc1` (configuration not stated), the cell number change was 25.4% and the AC50 [1] was 18.4 µM [rising, single point].
For `COC(=O)c1c(-c2ccc(OC)c(OC)c2)csc1N`, the cell number change was -1.21% and the AC50 [1] was 0.366 µM [rising, partial curve, poor fit].
Molecule `CC(=O)c1ccc(-c2ccc(C(=O)N3CCCc4ccccc43)o2)cc1` has a cell number change of 21%.
With `COc1ccccc1N1CCN(S(=O)(=O)c2c(C)[nH]c(C)c2C(=O)N2CCCCC2)CC1` the cell number change was 53.3%, the AC50 [2] was 29.1 µM [rising, single point] and the AC50 [1] was 29.1 µM [rising, single point].
In the case of `c1ccc(N2CCOCCOCCOCCOCC2)cc1`, the cell number change was 2.3% and the AC50 [1] was 0.00461 µM [falling, full curve, poor fit].
With `Cc1ccc2occ(C(c3nnnn3Cc3ccccc3)N3CCOCC3)c(=O)c2c1` (configuration not stated) the cell number change was 44%, the AC50 [2] was 5.17 µM [rising, full curve] and the AC50 [1] was 6.51 µM [rising, partial curve, poor fit].
With `Cc1nc(=O)c(-c2ccccc2)c(C)n1CC1CCCO1` (configuration not stated) the cell number change was -6.48% and the AC50 [1] was 2.31 µM [rising, full curve].
With `O=CN1CCN(C(=O)CC(c2ccccc2)c2cc(Br)ccc2O)CC1` (configuration not stated) the cell number change was -32.8%, the AC50 [2] was 29.1 µM [falling, single point] and the AC50 [1] was 23.1 µM [falling, single point].
With `CCC(C)c1ccccc1O` (configuration not stated) the cell number change was -1.92% and the AC50 [1] was 29.1 µM [rising, single point].
With `CCC(=O)N1CCN(c2ccccc2NC(=O)c2ccc([N+](=O)[O-])o2)CC1` the AC50 [1] was 11.6 µM [falling, partial curve].
With `COc1ccccc1/C=C/C(=O)OCCN1CCOCC1` the cell number change was 31.7%, the AC50 [2] was 14.6 µM [rising, partial curve, poor fit] and the AC50 [1] was 11.6 µM [rising, partial curve].
With `CC1CCN(S(=O)(=O)c2ccc(C(=O)OCc3ccc4c(c3)OCO4)cc2)CC1` the cell number change was -79.9% and the AC50 [2] was 32.6 µM [falling, partial curve, poor fit].
In the case of `COc1ccc(-c2nnc(SCc3ccccc3F)o2)cc1`, the AC50 [2] was 6.51 µM [rising, single point] and the AC50 [1] was 20.6 µM [rising, partial curve].
With `COc1ccc(/C=C/C(=O)NCc2nc3ccccc3[nH]2)cc1OC` the AC50 [1] was 4.61 µM [falling, single point].
In the case of `Cn1c(/C(C#N)=C/C2CC=CCC2)nc2ccccc21` (configuration not stated), the AC50 [2] was 0.92 µM [rising, partial curve].
Molecule `O=c1oc2ccccc2cc1-c1ccc(O)cc1` has a cell number change of -5.1%.
In the case of `COc1ccc(N(CC(=O)N2CCN(Cc3ccccc3)CC2)S(C)(=O)=O)cc1OC`, the cell number change was -15.1% and the AC50 [1] was 0.092 µM [falling, full curve, poor fit].
In the case of `COc1ccc(NC(=O)CSc2nc(N)cc(=O)[nH]2)cc1S(=O)(=O)N1CCCCC1`, the cell number change was 2.86% and the AC50 [1] was 18.4 µM [rising, single point].
In the case of `CCCNC(=O)[C@H]1N2C(=O)c3c(ccc(OC)c3OC)C2SC1(C)C` (some centres not stated), the cell number change was -11.9% and the AC50 [1] was 23.1 µM [falling, single point].
With `Cc1nc2c(sc3nc(N4CCOCC4)c4c(c32)CC(C)(C)OC4)c(-c2ccc(Cl)cc2)c1C(=O)O` the AC50 [1] was 10.3 µM [falling, partial curve].
With `CCCn1c(C(CO)Nc2nc(-c3cccc(Br)c3)cs2)nc2ccccc21` (configuration not stated) the cell number change was -19.8% and the AC50 [1] was 29.1 µM [falling, single point].
